Construct, isoform or probe ends are uncertain for at least one entry. For part of these data: A negative result means that nothing was seen under these conditions.

The test system of data set [1] is GST-BrTCP21. Description: EMSA. To be noted: EMSA: binding buffer (composition not stated), 25 min at 30 °C, 6% native PAGE, biotin chemiluminescence; pH and salt not given; recombinant protein; protein details: N-terminal GST (pGEX-4T-1); label: 5' biotin (labeled probe), unlabeled as competitor. On the technique in general: In EMSA bound probe runs differently from free probe, usually more slowly.

The target in data set [2] is GST (UniProt P08515). Kind of data set: EMSA. As to conditions: EMSA: binding buffer (composition not stated), 25 min at 30 °C, 6% native PAGE, biotin chemiluminescence; pH and salt not given; recombinant protein; protein details: GST only; label: 5' biotin (labeled probe), unlabeled as competitor.
Data set [3] relates to GST-BrTCP21. Kind of data set: competition with a labelled probe. As to conditions: molar excess of unlabeled WT probe eliminated the complex; EMSA: binding buffer (composition not stated), 25 min at 30 °C, 6% native PAGE, biotin chemiluminescence; pH and salt not given; recombinant protein; protein details: N-terminal GST (pGEX-4T-1); label: 5' biotin (labeled probe), unlabeled as competitor.

For “GGCATTGTTATCTTTGTGATGGGCCCCACAAAGCCCAAGATAGCTTTTCC (double strand) [BrGA20ox3 promoter WT probe]”, the values for the binding result in data set [1], in data set [2] and in data set [3] were “binds”, “no binding” and “binds”, respectively.
